Measured data: PubChem BioAssay AID686943 (Drosophila RNAi Screening Center, 2013)
The deposit covers about 23,000 reagents; shown is an unselected part of those with a known target gene and a result. 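Extra replicates exist only for a retested subset of genes; insulin dose and duration not given; both raised and lowered dpERK matter.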 Reagents against one gene are numbered here. Not all columns of the deposit are shown. Not given: the amount of reagent, the time to read-out.

Aim: 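Search across the genome for regulators of signalling from receptor tyrosine kinase to ERK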 (primary screen)
System: Drosophila S2R+ haemocyte-like cells expressing YFP-tagged ERK (Rolled)
Reagent: long dsRNA against Drosophila genes
Treatment: insulin stimulation versus unstimulated cells; dose and duration not given
Read-out: 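Per-plate z-scores of phospho-ERK immunostaining normalised to YFP-tagged ERK, measured with and without insulin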
Scale: replicate 1, z-score of dpERK with insulin: higher = more active ERK per ERK-YFP after insulin

tko (technical knockout)
- replicate 1, z-score of dpERK with insulin: -0.5

Fpgs1 (Folylpolyglutamate synthase 1)
- replicate 1, z-score of dpERK with insulin: -1.22

Gr64a (Gustatory receptor 64a)
- replicate 1, z-score of dpERK with insulin: 0.37

CG3618
- replicate 1, z-score of dpERK with insulin: -0.17

CG18081
- replicate 1, z-score of dpERK with insulin: 0.88

Agxt (Alanine-glyoxylate aminotransferase)
- replicate 1, z-score of dpERK with insulin: 0.46

Boot (Bootlegger)
- replicate 1, z-score of dpERK with insulin: 0.88

CG13585
- replicate 1, z-score of dpERK with insulin: 0.06

LManIII (Lysosomal alpha-mannosidase III)
- replicate 1, z-score of dpERK with insulin: 0.1

CG33125
- replicate 1, z-score of dpERK with insulin: -0.1

Rpp14b (Ribonuclease P/MRP subunit p14 b)
- replicate 1, z-score of dpERK with insulin: 0.22

borr (borealin-related)
- replicate 1, z-score of dpERK with insulin: 0.25

her (hermaphrodite)
- replicate 1, z-score of dpERK with insulin: -0.28

CG13674
- replicate 1, z-score of dpERK with insulin: 1.2

CG2938
- replicate 1, z-score of dpERK with insulin: 0.23

CG17544
- replicate 1, z-score of dpERK with insulin: 0.6

Osi21 (Osiris 21)
- replicate 1, z-score of dpERK with insulin: -0.21

CG5114
- replicate 1, z-score of dpERK with insulin: -0.14

TotB (Turandot B)
- replicate 1, z-score of dpERK with insulin: -0.71

ebd2 (earthbound 2)
- replicate 1, z-score of dpERK with insulin: -0.16

d-cup (davis-cup)
- replicate 1, z-score of dpERK with insulin: -0.32

CG18675
- replicate 1, z-score of dpERK with insulin: -0.22

trus (toys are us)
- replicate 1, z-score of dpERK with insulin: 0.17

CG14717
- replicate 1, z-score of dpERK with insulin: 0.75

CG11231 (retired record)
- replicate 1, z-score of dpERK with insulin: 1.22

for (foraging) #1
- replicate 1, z-score of dpERK with insulin: -1.52

for (foraging) #2
- replicate 1, z-score of dpERK with insulin: -0.24

Bmcp
- replicate 1, z-score of dpERK with insulin: 0.06

l(2)SH0834 (lethal (2) SH0834)
- replicate 1, z-score of dpERK with insulin: -1.28

Rh2 (Rhodopsin 2)
- replicate 1, z-score of dpERK with insulin: 0.68

Arl1 (ADP ribosylation factor-like 1)
- replicate 1, z-score of dpERK with insulin: 0.52

Entries listed so far whose target name begins with A or a:
Agxt (Alanine-glyoxylate aminotransferase)
- replicate 1, z-score of dpERK with insulin: 0.46

Arl1 (ADP ribosylation factor-like 1)
- replicate 1, z-score of dpERK with insulin: 0.52
